Values are raw readings; no control value is given beside them.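 Maximum concentrations were near the MIC for antimicrobials, 500 µM for most other compounds, and as high as 1 mM for known inducer-like compounds. Deletion strains began with a tenfold smaller inoculum, and wells with growth under 10% of the overall median counted as non-growing.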
Tested on: Escherichia coli BW25113
Assay: growth (OD600 area under curve, 8 h) (OD600 x h); higher = more growth
Procedure: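 E. coli BW25113 reporter strains (wild type, ΔmarA, ΔsoxS, Δrob, each carrying one of 8 lux reporter plasmids) were grown in 40 µl LB in 384-well plates at 37°C, 800 rpm, with each compound at 4 two-fold concentrations, in biological duplicates. Growth is the baseline-corrected OD600 area under the curve over 8 h (0-8 h WT, 1-9 h deletion strains).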

Cc1onc(-c2ccccc2)c1C(=O)N[C@@H]1C(=O)N2[C@@H]1SC(C)(C)[C@@H]2C(=O)O [Oxacillin]
growth
Details | reporter plasmid: EVC | reporter plasmid: acrABp | reporter plasmid: marRABp | reporter plasmid: micFp | reporter plasmid: ompFp | reporter plasmid: robp | reporter plasmid: soxSp | reporter plasmid: tolCp
0.53 µg/ml, genetic background: wild type | 3.08 | 3.04 | 3.21 | 3.13 | 3 | 3.28 | 3.218 | 3.311
0.53 µg/ml, genetic background: ΔmarA | 3.09 | 4.16 | 3.46 | 3.12 | 3.19 | 3.49 | 2.87 | 2.84
0.53 µg/ml, genetic background: Δrob | 3.04 | 3.09 | 3.42 | 3.01 | 2.32 | 2.76 | 3.1 | 3.22
0.53 µg/ml, genetic background: ΔsoxS | 3.33 | 3.24 | 3.07 | 2.98 | 3.09 | 3.12 | 3.15 | 3.2
1.1 µg/ml, genetic background: wild type | 2.96 | 3.02 | 3.1 | 3.19 | 3.12 | 3.27 | 3.115 | 3.26
1.1 µg/ml, genetic background: ΔmarA | 3.04 | 3.93 | 3.36 | 3.22 | 3.29 | 3.42 | 2.9 | 2.94
1.1 µg/ml, genetic background: Δrob | 3.06 | 2.71 | 3.29 | 3.07 | 2.24 | 2.64 | 3.05 | 3.19
1.1 µg/ml, genetic background: ΔsoxS | 3.19 | 2.95 | 2.91 | 3.09 | 2.94 | 2.97 | 3 | 3.05
2.1 µg/ml, genetic background: wild type | 3.17 | 2.99 | 3.41 | 3.26 | 3.26 | 3.38 | 3.17 | 3.257
2.1 µg/ml, genetic background: ΔmarA | 3 | 4.27 | 3.584 | 3.25 | 3.49 | 3.89 | 2.85 | 3.01
2.1 µg/ml, genetic background: Δrob | 3.07 | 3.21 | 3.54 | 3.05 | 2.71 | 2.86 | 2.96 | 3.47
2.1 µg/ml, genetic background: ΔsoxS | 3.27 | 3.25 | 3.33 | 3.07 | 3.21 | 3.37 | 3.22 | 3.32
4.2 µg/ml, genetic background: wild type | 3 | 2.62 | 3.02 | 3.1 | 3.14 | 3.13 | 3.07 | 3.2
4.2 µg/ml, genetic background: ΔmarA | 2.88 | 3.5 | 3.23 | 3.02 | 3.13 | 3.11 | 2.7 | 2.79
4.2 µg/ml, genetic background: Δrob | 3.1 | 2.58 | 3.19 | 2.84 | 2.47 | 2.65 | 2.94 | 3.22
4.2 µg/ml, genetic background: ΔsoxS | 3.26 | 2.86 | 2.78 | 2.74 | 2.9 | 2.94 | 2.88 | 3.008

NCCc1ccc(O)c(O)c1 [Dopamine]
growth
Details | reporter plasmid: EVC | reporter plasmid: acrABp | reporter plasmid: marRABp | reporter plasmid: micFp | reporter plasmid: ompFp | reporter plasmid: robp | reporter plasmid: soxSp | reporter plasmid: tolCp
11.9 µg/ml, genetic background: wild type | 2.83 | 2.53 | 3.19 | 2.94 | 2.63 | 2.78 | 2.71 | 2.93
11.9 µg/ml, genetic background: ΔmarA | 3.49 | 4.33 | 3.69 | 3.35 | 3.27 | 3.43 | 2.88 | 3.05
11.9 µg/ml, genetic background: Δrob | 2.48 | 2.88 | 3.3338 | 3.11 | 2.41 | 2.39 | 2.9 | 2.8
11.9 µg/ml, genetic background: ΔsoxS | 2.75 | 2.76 | 2.83 | 2.54 | 2.63 | 2.891 | 2.86 | 2.71
23.7 µg/ml, genetic background: wild type | 2.76 | 2.94 | 3.4 | 2.75 | 2.77 | 2.86 | 2.48 | 2.74
23.7 µg/ml, genetic background: ΔmarA | 3.32 | 3.99 | 3.11 | 3.18 | 2.79 | 3.08 | 2.71 | 2.9
23.7 µg/ml, genetic background: Δrob | 2.5 | 3.25 | 3.32 | 2.95 | 2.11 | 2.47 | 2.66 | 2.59
23.7 µg/ml, genetic background: ΔsoxS | 2.58 | 2.71 | 2.93 | 2.45 | 2.56 | 3.17 | 2.76 | 2.51
47.4 µg/ml, genetic background: wild type | 2.88 | 2.57 | 3.09 | 2.89 | 2.7 | 2.8 | 2.6 | 2.98
47.4 µg/ml, genetic background: ΔmarA | 3.17 | 4.03 | 3.58 | 3.07 | 3.16 | 3.54 | 2.68 | 2.83
47.4 µg/ml, genetic background: Δrob | 2.37 | 2.82 | 2.95 | 2.99 | 2.33 | 2.38 | 2.71 | 2.73
47.4 µg/ml, genetic background: ΔsoxS | 2.58 | 2.7 | 3.03 | 2.38 | 2.63 | 3.04 | 2.95 | 2.84
94.8 µg/ml, genetic background: wild type | 2.66 | 2.57 | 2.85 | 2.36 | 2.62 | 2.91 | 2.37 | 2.61
94.8 µg/ml, genetic background: ΔmarA | 2.83 | 3.52 | 2.62 | 2.501 | 2.01 | 2.78 | 2.2 | 2.54
94.8 µg/ml, genetic background: Δrob | 2.36 | 3.12 | 3.12 | 2.57 | 1.84 | 2.18 | 2.24 | 2.65
94.8 µg/ml, genetic background: ΔsoxS | 2.22 | 2.83 | 2.91 | 1.96 | 2 | 2.7 | 2.41 | 2.53

CC(=O)N[C@H]1[C@@H](O[C@@H]2O[C@H](CC(O)[C@H]3O[C@@H](n4ccc(=O)[nH]c4=O)[C@H](O)[C@@H]3O)[C@H](O)[C@H](O)[C@H]2NC(=O)/C=C/CC(C)C)O[C@H](CO)[C@@H](N)[C@@H]1O (some centres undefined) [Tunicamycin]
growth
Details | reporter plasmid: EVC | reporter plasmid: acrABp | reporter plasmid: marRABp | reporter plasmid: micFp | reporter plasmid: ompFp | reporter plasmid: robp | reporter plasmid: soxSp | reporter plasmid: tolCp
2.6 µg/ml, genetic background: wild type | 3.0493 | 2.85 | 3.14 | 2.64 | 3.03 | 3.18 | 2.7 | 2.6
2.6 µg/ml, genetic background: ΔmarA | 3.37 | 4.28 | 3.85 | 3.4 | 3.76 | 4.18 | 2.83 | 3.03
2.6 µg/ml, genetic background: Δrob | 2.92 | 2.82 | 3.14 | 2.72 | 2.87 | 2.79 | 2.63 | 2.47
2.6 µg/ml, genetic background: ΔsoxS | 3.42 | 3.32 | 3.41 | 2.79 | 3.2 | 3.38 | 2.98 | 2.95
5.3 µg/ml, genetic background: wild type | 3.04 | 2.98 | 3.15 | 2.72 | 3.139 | 3.14 | 2.654 | 2.62
5.3 µg/ml, genetic background: ΔmarA | 2.92 | 4.23 | 3.727 | 3.22 | 3.26 | 4.06 | 2.85 | 2.89
5.3 µg/ml, genetic background: Δrob | 2.92 | 2.98 | 3.2 | 2.9 | 2.69 | 2.73 | 2.55 | 2.57
5.3 µg/ml, genetic background: ΔsoxS | 3.5 | 3.3 | 3.43 | 3.08 | 3.26 | 3.34 | 3.1 | 3.23
10.6 µg/ml, genetic background: wild type | 3.22 | 2.8 | 3.17 | 2.91 | 3.149 | 3.28 | 2.95 | 2.93
10.6 µg/ml, genetic background: ΔmarA | 2.9366 | 3.71 | 3.45 | 3.38 | 3.47 | 3.95 | 2.74 | 2.9
10.6 µg/ml, genetic background: Δrob | 3.15 | 3.026 | 2.98 | 2.93 | 2.81 | 2.66 | 2.66 | 2.89
10.6 µg/ml, genetic background: ΔsoxS | 3.45 | 3.31 | 3.49 | 3.0122 | 3.18 | 3.52 | 3.29 | 3.3
21.1 µg/ml, genetic background: wild type | 3.35 | 2.34 | 2.59 | 2.768 | 2.4 | 2.81 | 2.82 | 3.09
21.1 µg/ml, genetic background: ΔmarA | 3.27 | 3.18 | 2.85 | 3.35 | 3.02 | 3.62 | 2.93 | 2.84
21.1 µg/ml, genetic background: Δrob | 3.36 | 2.19 | 2.72 | 3 | 1.84 | 2.18 | 2.82 | 3.18
21.1 µg/ml, genetic background: ΔsoxS | 3.46 | 2.76 | 2.67 | 2.88 | 2.57 | 2.67 | 3.13 | 3.52

Reference: the supplement of paper PMC12282887
